Results are given in words; binding and its absence hold for the method and conditions named.

Sequences of proteins named here, by UniProt entry; tags and fusion partners are left off. A change or cut given only in a name is not applied to a line headed by its entry. Residues count along the entry.
UniProt P49767: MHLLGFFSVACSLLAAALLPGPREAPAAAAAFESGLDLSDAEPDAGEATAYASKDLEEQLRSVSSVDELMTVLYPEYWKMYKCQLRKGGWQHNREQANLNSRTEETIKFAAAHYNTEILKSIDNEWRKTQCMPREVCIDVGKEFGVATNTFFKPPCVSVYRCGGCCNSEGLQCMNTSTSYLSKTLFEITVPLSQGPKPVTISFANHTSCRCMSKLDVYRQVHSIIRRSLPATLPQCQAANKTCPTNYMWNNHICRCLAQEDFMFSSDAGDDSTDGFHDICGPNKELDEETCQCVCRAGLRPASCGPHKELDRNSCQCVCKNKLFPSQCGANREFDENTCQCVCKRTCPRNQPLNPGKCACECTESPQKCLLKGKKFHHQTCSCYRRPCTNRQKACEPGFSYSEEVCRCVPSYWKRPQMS
UniProt P09382, residues 2-135: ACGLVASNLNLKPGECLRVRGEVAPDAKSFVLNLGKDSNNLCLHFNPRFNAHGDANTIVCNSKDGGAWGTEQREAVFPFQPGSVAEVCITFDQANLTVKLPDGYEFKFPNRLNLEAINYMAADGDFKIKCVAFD
UniProt P17931, residues 2-250: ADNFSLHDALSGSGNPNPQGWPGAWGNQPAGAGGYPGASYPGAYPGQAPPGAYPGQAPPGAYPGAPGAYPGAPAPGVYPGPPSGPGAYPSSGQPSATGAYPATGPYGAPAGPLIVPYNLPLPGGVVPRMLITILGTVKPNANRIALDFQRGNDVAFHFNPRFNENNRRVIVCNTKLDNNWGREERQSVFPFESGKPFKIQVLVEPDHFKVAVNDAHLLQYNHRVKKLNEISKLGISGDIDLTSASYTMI
UniProt P47929: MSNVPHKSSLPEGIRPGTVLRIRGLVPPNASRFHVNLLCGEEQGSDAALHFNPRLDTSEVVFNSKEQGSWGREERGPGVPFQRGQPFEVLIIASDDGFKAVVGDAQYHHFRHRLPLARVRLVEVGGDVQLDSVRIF

These results are taken from patent US20170202915A1 (TUFTS UNIVERSITY, published 2017).

B1: recombinant full-length galectin-8 (other, UniProt O00214 1-317, looked up)
chain: MMLSLNNLQNIIYNPVIPFVGTIPDQLDPGTLIVIRGHVPSDADRFQVDLQNGSSMKPRADVAFHFNPRFKRAGCIVCNTLINEKWGREEITYDTPFKREKSFEIVIMVLKDKFQVAVNGKHTLLYGHRIGPEKIDTLGIYGKVNIHSIGFSFSSDLQSTQASSLELTEISRENVPKSGTPQLRLPFAARLNTPMGPGRTVVVKGEVNANAKSFNVDLLAGKSKDIALHLNPRLNIKAFVRNSFLQESWGEEERNITSFPFSPGMYFEMIIYCDVREFKVAVNGVHSLEYKHRFKELSSIDTLEINGDIHLLEVRSW
notes: mature; Tandem-repeat lectin with an N-CRD and a C-CRD; also called Gal-8; exogenous Gal-8

The test deals with VEGF-C (from primary LECs) (UniProt P49767). Put plainly: galectin-agarose pulldown from primary LECs, western blot (FIG. 21A). For orientation: Immunoblotting shows a protein as a band on a membrane.
Consider “recombinant galectin-1 (from UniProt P09382 2-135)”, for which the binding entry is listed as “no binding”. For the molecule “recombinant galectin-3 (from UniProt P17931 2-250)”, the binding result is “no binding”. The value for “recombinant galectin-7 (from UniProt P47929 1-136)” was “no binding”; that for B1 was “no binding”.
